In paper PMC6237183 (Nature structural & molecular biology, 2018) one finds EC50 and IC50 data, which are given here for one compound.

The chains behind the UniProt entries cited, without tags or fusion partners.
UniProt P41595, whole entry A225G: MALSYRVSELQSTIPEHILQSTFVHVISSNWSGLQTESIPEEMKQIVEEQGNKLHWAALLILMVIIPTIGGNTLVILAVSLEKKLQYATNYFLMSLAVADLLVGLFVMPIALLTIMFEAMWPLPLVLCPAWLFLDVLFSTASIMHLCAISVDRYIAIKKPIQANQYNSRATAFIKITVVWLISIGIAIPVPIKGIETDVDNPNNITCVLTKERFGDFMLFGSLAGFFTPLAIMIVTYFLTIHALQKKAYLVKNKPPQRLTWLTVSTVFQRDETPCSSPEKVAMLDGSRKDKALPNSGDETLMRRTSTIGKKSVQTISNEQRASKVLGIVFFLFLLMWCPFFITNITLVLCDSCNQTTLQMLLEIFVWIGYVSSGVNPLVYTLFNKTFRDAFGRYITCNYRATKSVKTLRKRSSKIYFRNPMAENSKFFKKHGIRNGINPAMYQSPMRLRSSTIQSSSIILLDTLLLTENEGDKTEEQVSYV
UniProt P41595, whole entry: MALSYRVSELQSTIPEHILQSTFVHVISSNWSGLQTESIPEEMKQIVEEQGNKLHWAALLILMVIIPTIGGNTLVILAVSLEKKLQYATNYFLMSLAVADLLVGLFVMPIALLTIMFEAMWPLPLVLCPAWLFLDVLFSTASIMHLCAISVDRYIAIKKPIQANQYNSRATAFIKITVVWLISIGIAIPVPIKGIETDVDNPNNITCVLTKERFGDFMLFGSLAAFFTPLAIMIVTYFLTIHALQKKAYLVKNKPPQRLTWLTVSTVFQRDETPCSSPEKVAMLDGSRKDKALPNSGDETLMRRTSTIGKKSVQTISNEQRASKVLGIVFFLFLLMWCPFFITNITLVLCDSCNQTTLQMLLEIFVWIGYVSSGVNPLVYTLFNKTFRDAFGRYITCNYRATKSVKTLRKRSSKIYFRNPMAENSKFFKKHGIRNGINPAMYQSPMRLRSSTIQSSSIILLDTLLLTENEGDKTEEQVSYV

pEC50, pIC50: −log10 of the molar value. Several values for one entry are separate records, joined by “and”; a condition that tells them apart may be missing. Equal values may be shown once.

Test [1] addresses T1, 5-HT2BR A225G^5.46 (Homo sapiens, UniProt P41595, A225G). Briefly: β-Arrestin2 recruitment Tango assay.
Test [2] concerns the target T1, 5-HT2BR A225G^5.46. Nature of the test: Gq-mediated calcium flux FLIPR assay. The conditions noted are these: Gq calcium flux EC50, A225G^5.46 mutant. Background: Calcium flux is commonly read through the fluorescence of an indicator in the cells.
Another test addresses 5-HT2BR wild-type (Homo sapiens, UniProt P41595). Nature of the test: Gq-mediated calcium flux FLIPR assay.

In the case of `CC[C@@H](CO)NC(=O)[C@@H]1C=C2c3cccc4c3c(cn4C)C[C@H]2N(C)C1` [methysergide], the pEC50 is 8.77 at 5-HT2BR A225G^5.46 [1]; 7.92 and 7.48 on 5-HT2BR A225G^5.46 [2]. Moreover, at 5-HT2BR wild-type, the negative logarithm of the IC50 (pIC50) was 8.62.

In general, pEC50 refers to −log10 of the EC50, conventionally taken in molar units. Broadly, the pIC50 is the negative decadic logarithm of the IC50, by convention in mol/L.
